Test system: BAF complex subunits and histone proteins
Experiment: Mass spectrometry proteomics of purified HA-SS18 WT and HA-SS18-SSX1 complexes (Tables 5A-5E)
Set-up: species or system human
[1] = HA-SS18SSX1_NE_peptides: protein co-purified with HA-SS18-SSX1 BAF complexes from soluble nuclear extract (NE), HEK-293T cells
[2] = HA-SS18WT_NE_peptides: proteins co-purified with HA-SS18 WT from nuclear extract (NE), HEK-293T
[3] = HA-SS18WT_CHR_peptides: protein identified in HA-SS18 WT BAF complex purification from nuclease-treated solubilized chromatin (CHR), HEK-293T
[4] = HA-SS18WT_NE_peptides: HA-SS18 WT complexes purified from nuclear extract (NE), HEK-293T, label = protein identified (Gene Symbol)

Row | Molecule | Total (peptides) [1] | Unique (peptides) [1] | Total (peptides) [2] | Unique (peptides) [2] | Total (total peptides) [3] | Unique (unique peptides) [3] | Total (peptides) [4] | Unique (peptides) [4]
1 | DERL1 (protein, UniProt Q9BUN8 2-251, looked up) Derlin-1: SDIGDWFRSIPAITRYWFAATVAVPLVGKLGLISPAYLFLWPEAFLYRFQIWRPITATFYFPVGPGTGFLYLVNLYFLYQYSTRLETGAFDGRPADYLFMLLFNWICIVITGLAMDMQLLMIPLIMSVLYVWAQLNRDMIVSFWFGTRFKACYLPWVILGFNYIIGGSVINELIGNLVGHLYFFLMFRYPMDLGGRNFLSTPQFLYRWLPSRRGGVSGFGVPPASMRRAADQNGGGGRHNWGQGFRLGDQ | 1 | 1 | 1 | 1 |  |  |  | 
2 | LPGAT1 (protein, UniProt Q92604 1-370, looked up) Acyl-CoA:lysophosphatidylglyce …: MAITLEEAPWLGWLLVKALMRFAFMVVNNLVAIPSYICYVIILQPLRVLDSKRFWYIEGIMYKWLLGMVASWGWYAGYTVMEWGEDIKAVSKDEAVMLVNHQATGDVCTLMMCLQDKGLVVAQMMWLMDHIFKYTNFGIVSLVHGDFFIRQGRSYRDQQLLLLKKHLENNYRSRDRKWIVLFPEGGFLRKRRETSQAFAKKNNLPFLTNVTLPRSGATKIILNALVAQQKNGSPAGGDAKELDSKSKGLQWIIDTTIAYPKAEPIDIQTWILGYRKPTVTHVHYRIFPIKDVPLETDDLTTWLYQRFVEKEDLLSHFYETGAFPPSKGHKEAVSREMTLSNLWIFLIQSFAFLSGYMWYNIIQYFYHCLF | 1 | 1 |  |  |  |  |  | 
3 | XPO5 (protein, UniProt Q9HAV4 2-1204, looked up) Exportin-5: AMDQVNALCEQLVKAVTVMMDPNSTQRYRLEALKFCEEFKEKCPICVPCGLRLAEKTQVAIVRHFGLQILEHVVKFRWNGMSRLEKVYLKNSVMELIANGTLNILEEENHIKDALSRIVVEMIKREWPQHWPDMLIELDTLSKQGETQTELVMFILLRLAEDVVTFQTLPPQRRRDIQQTLTQNMERIFSFLLNTLQENVNKYQQVKTDTSQESKAQANCRVGVAALNTLAGYIDWVSMSHITAENCKLLEILCLLLNEQELQLGAAECLLIAVSRKGKLEDRKPLMVLFGDVAMHYILSAAQTADGGGLVEKHYVFLKRLCQVLCALGNQLCALLGADSDVETPSNFGKYLESFLAFTTHPSQFLRSSTQMTWGALFRHEILSRDPLLLAIIPKYLRASMTNLVKMGFPSKTDSPSCEYSRFDFDSDEDFNAFFNSSRAQQGEVMRLACRLDPKTSFQMAGEWLKYQLSTFLDAGSVNSCSAVGTGEGSLCSVFSPSFVQWEAMTLFLESVITQMFRTLNREEIPVNDGIELLQMVLNFDTKDPLILSCVLTNVSALFPFVTYRPEFLPQVFSKLFSSVTFETVEESKAPRTRAVRNVRRHACSSIIKMCRDYPQLVLPNFDMLYNHVKQLLSNELLLTQMEKCALMEALVLISNQFKNYERQKVFLEELMAPVASIWLSQDMHRVLSDVDAFIAYVGTDQKSCDPGLEDPCGLNRARMSFCVYSILGVVKRTCWPTDLEEAKAGGFVVGYTSSGNPIFRNPCTEQILKLLDNLLALIRTHNTLYAPEMLAKMAEPFTKALDMLDAEKSAILGLPQPLLELNDSPVFKTVLERMQRFFSTLYENCFHILGKAGPSMQQDFYTVEDLATQLLSSAFVNLNNIPDYRLRPMLRVFVKPLVLFCPPEHYEALVSPILGPLFTYLHMRLSQKWQVINQRSLLCGEDEAADENPESQEMLEEQLVRMLTREVMDLITVCCVSKKGADHSSAPPADGDDEEMMATEVTPSAMAELTDLGKCLMKHEDVCTALLITAFNSLAWKDTLSCQRTTSQLCWPLLKQVLSGTLLADAVTWLFTSVLKGLQMHGQHDGCMASLVHLAFQIYEALRPRYLEIRAVMEQIPEIQKDSLDQFDCKLLNPSLQKVADKRRKDQFKRLIAGCIGKPLGEQFRKEVHIKNLPSLFKKTKPMLETEVLDNDGGGLATIFEP | 1 | 1 |  |  |  |  |  | 
4 | ATP5L (protein, UniProt O75964 2-103, looked up) ATP synthase F(0) complex …: AQFVRNLVEKTPALVNAAVTYSKPRLATFWYYAKVELVPPTPAEIPRAIQSLKKIVNSAQTGSFKQLTVKEAVLNGLVATEVLMWFYVGEIIGKRGIIGYDV | 1 | 1 | 1 | 1 |  |  |  | 
5 | PIGK (protein, UniProt Q92643 28-395, looked up) GPI-anchor transamidase: SHIEDQAEQFFRSGHTNNWAVLVCTSRFWFNYRHVANTLSVYRSVKRLGIPDSHIVLMLADDMACNPRNPKPATVFSHKNMELNVYGDDVEVDYRSYEVTVENFLRVLTGRIPPSTPRSKRLLSDDRSNILIYMTGHGGNGFLKFQDSEEITNIELADAFEQMWQKRRYNELLFIIDTCQGASMYERFYSPNIMALASSQVGEDSLSHQPDPAIGVHLMDRYTFYVLEFLEEINPASQTNMNDLFQVCPKSLCVSTPGHRTDLFQRDPKNVLITDFFGSVRKVEITTETIKLQQDSEIMESSYKEDQMDEKLMEPLKYAEQLPVAQIIHQKPKLKDWHPPGGFILGLWALIIMVFFKTYGIKHMKFIF | 1 | 1 | 2 | 2 |  |  |  | 
6 | DDX50 (protein, UniProt Q9BQ39 1-737, looked up) ATP-dependent RNA helicase …: MPGKLLWGDIMELEAPLEESESQKKERQKSDRRKSRHHYDSDEKSETRENGVTDDLDAPKAKKSKMKEKLNGDTEEGFNRLSDEFSKSHKSRRKDLPNGDIDEYEKKSKRVSSLDTSTHKSSDNKLEETLTREQKEGAFSNFPISEETIKLLKGRGVTYLFPIQVKTFGPVYEGKDLIAQARTGTGKTFSFAIPLIERLQRNQETIKKSRSPKVLVLAPTRELANQVAKDFKDITRKLSVACFYGGTSYQSQINHIRNGIDILVGTPGRIKDHLQSGRLDLSKLRHVVLDEVDQMLDLGFAEQVEDIIHESYKTDSEDNPQTLLFSATCPQWVYKVAKKYMKSRYEQVDLVGKMTQKAATTVEHLAIQCHWSQRPAVIGDVLQVYSGSEGRAIIFCETKKNVTEMAMNPHIKQNAQCLHGDIAQSQREITLKGFREGSFKVLVATNVAARGLDIPEVDLVIQSSPPQDVESYIHRSGRTGRAGRTGICICFYQPRERGQLRYVEQKAGITFKRVGVPSTMDLVKSKSMDAIRSLASVSYAAVDFFRPSAQRLIEEKGAVDALAAALAHISGASSFEPRSLITSDKGFVTMTLESLEEIQDVSCAWKELNRKLSSNAVSQITRMCLLKGNMGVCFDVPTTESERLQAEWHDSDWILSVPAKLPEIEEYYDGNTSSNSRQRSGWSSGRSGRSGRSGGRSGGRSGRQSRQGSRSGSRQDGRRRSGNRNRSRSGGHKRSFD | 1 | 1 |  |  |  |  |  | 
7 | NCBP1 (protein, UniProt Q09161 1-790, looked up) Nuclear cap-binding protein …: MSRRRHSDENDGGQPHKRRKTSDANETEDHLESLICKVGEKSACSLESNLEGLAGVLEADLPNYKSKILRLLCTVARLLPEKLTIYTTLVGLLNARNYNFGGEFVEAMIRQLKESLKANNYNEAVYLVRFLSDLVNCHVIAAPSMVAMFENFVSVTQEEDVPQVRRDWYVYAFLSSLPWVGKELYEKKDAEMDRIFANTESYLKRRQKTHVPMLQVWTADKPHPQEEYLDCLWAQIQKLKKDRWQERHILRPYLAFDSILCEALQHNLPPFTPPPHTEDSVYPMPRVIFRMFDYTDDPEGPVMPGSHSVERFVIEENLHCIIKSHWKERKTCAAQLVSYPGKNKIPLNYHIVEVIFAELFQLPAPPHIDVMYTTLLIELCKLQPGSLPQVLAQATEMLYMRLDTMNTTCVDRFINWFSHHLSNFQFRWSWEDWSDCLSQDPESPKPKFVREVLEKCMRLSYHQRILDIVPPTFSALCPANPTCIYKYGDESSNSLPGHSVALCLAVAFKSKATNDEIFSILKDVPNPNQDDDDDEGFSFNPLKIEVFVQTLLHLAAKSFSHSFSALAKFHEVFKTLAESDEGKLHVLRVMFEVWRNHPQMIAVLVDKMIRTQIVDCAAVANWIFSSELSRDFTRLFVWEILHSTIRKMNKHVLKIQKELEEAKEKLARQHKRRSDDDDRSSDRKDGVLEEQIERLQEKVESAQSEQKNLFLVIFQRFIMILTEHLVRCETDGTSVLTPWYKNCIERLQQIFLQHHQIIQQYMVTLENLLFTAELDPHILAVFQQFCALQA | 1 | 1 | 1 | 1 | 1 | 1 |  | 
8 | CHST14 (protein, UniProt Q8NCH0 1-376, looked up) Carbohydrate sulfotransferase …: MFPRPLTPLAAPNGAEPLGRALRRAPLGRARAGLGGPPLLLPSMLMFAVIVASSGLLLMIERGILAEMKPLPLHPPGREGTAWRGKAPKPGGLSLRAGDADLQVRQDVRNRTLRAVCGQPGMPRDPWDLPVGQRRTLLRHILVSDRYRFLYCYVPKVACSNWKRVMKVLAGVLDSVDVRLKMDHRSDLVFLADLRPEEIRYRLQHYFKFLFVREPLERLLSAYRNKFGEIREYQQRYGAEIVRRYRAGAGPSPAGDDVTFPEFLRYLVDEDPERMNEHWMPVYHLCQPCAVHYDFVGSYERLEADANQVLEWVRAPPHVRFPARQAWYRPASPESLHYHLCSAPRALLQDVLPKYILDFSLFAYPLPNVTKEACQQ | 1 | 1 |  |  |  |  |  | 
9 | MARS (protein, UniProt P56192 1-900, looked up) Methionine--tRNA ligase, …: MRLFVSDGVPGCLPVLAAAGRARGRAEVLISTVGPEDCVVPFLTRPKVPVLQLDSGNYLFSTSAICRYFFLLSGWEQDDLTNQWLEWEATELQPALSAALYYLVVQGKKGEDVLGSVRRALTHIDHSLSRQNCPFLAGETESLADIVLWGALYPLLQDPAYLPEELSALHSWFQTLSTQEPCQRAAETVLKQQGVLALRPYLQKQPQPSPAEGRAVTNEPEEEELATLSEEEIAMAVTAWEKGLESLPPLRPQQNPVLPVAGERNVLITSALPYVNNVPHLGNIIGCVLSADVFARYSRLRQWNTLYLCGTDEYGTATETKALEEGLTPQEICDKYHIIHADIYRWFNISFDIFGRTTTPQQTKITQDIFQQLLKRGFVLQDTVEQLRCEHCARFLADRFVEGVCPFCGYEEARGDQCDKCGKLINAVELKKPQCKVCRSCPVVQSSQHLFLDLPKLEKRLEEWLGRTLPGSDWTPNAQFITRSWLRDGLKPRCITRDLKWGTPVPLEGFEDKVFYVWFDATIGYLSITANYTDQWERWWKNPEQVDLYQFMAKDNVPFHSLVFPCSALGAEDNYTLVSHLIATEYLNYEDGKFSKSRGVGVFGDMAQDTGIPADIWRFYLLYIRPEGQDSAFSWTDLLLKNNSELLNNLGNFINRAGMFVSKFFGGYVPEMVLTPDDQRLLAHVTLELQHYHQLLEKVRIRDALRSILTISRHGNQYIQVNEPWKRIKGSEADRQRAGTVTGLAVNIAALLSVMLQPYMPTVSATIQAQLQLPPPACSILLTNFLCTLPAGHQIGTVSPLFQKLENDQIESLRQRFGGGQAKTSPKPAVVETVTTAKPQQIQALMDEVTKQGNIVRELKAQKADKNEVAAEVAKLLDLKKQLAVAEGKPPEAPKGKKKK | 1 | 1 |  |  |  |  | 3 | 2
